A short description of data set [1]: Formation of water-insoluble precipitates of drugs with metal ions (turbidity observed). It counts as physicochemical. Particulars: molar ratio varied. As for the experimental part: Compounds shown in Table 1 below were used to as the low-molecular weight, water-soluble and non-peptide drug having phosphate groups. […] The solution was then added to equal volume of 100 mM aqueous solutions of different metal ions. The turbidity of each of the resulting mixtures was observed.

The test system of data set [2] is adjuvant-induced arthritis. The experiment in a line: Activity to suppress adjuvant-induced arthritis (leg volume). It counts as in vivo, Lewis rats.

On to `C[C@H]1C[C@H]2[C@@H]3CCC4=CC(=O)C=C[C@]4(C)[C@@]3(F)[C@@H](O)C[C@]2(C)[C@@]1(O)C(=O)COP(=O)(O)O` [betamethasone phosphate], for which the “molar ratio with respect to zinc ion at which precipitate formation was most significant” value in data set [1] was “approximately 1”. Besides, the “Inflammation rate (%) after administration” value (from here on “Inflammation rate (%)”) in data set [2] (day 1, 100 μg single subcutaneous dose) was 78.4%; in data set [2] (day 1, 300 μg single subcutaneous dose), 68.3%; in data set [2] (day 2, 100 μg single subcutaneous dose) it was 80%; in data set [2] (day 2, 300 μg single subcutaneous dose) it was 76.5%; in data set [2] (day 3, 100 μg single subcutaneous dose) it was 82.8%; in data set [2] (day 3, 300 μg single subcutaneous dose) it was 79.2%. The “Inflammation rate (%)” value in data set [2] (day 4, 100 μg single subcutaneous dose) is recorded as 85.4%; in data set [2] (day 4, 300 μg single subcutaneous dose) it was 81.7%; in data set [2] (day 5, 100 μg single subcutaneous dose), 84.2%; in data set [2] (day 5, 300 μg single subcutaneous dose), 88%; in data set [2] (day 6, 100 μg single subcutaneous dose), 83%; in data set [2] (day 7, 100 μg single subcutaneous dose), 81.7%. Besides, the “Inflammation rate (%)” value in data set [2] (day 7, 300 μg single subcutaneous dose) turned out to be 84.8%.

These data come from US20060233883A1, “Intravenous nanoparticles for targeting drug delivery and sustained drug release” (priority 2003, published 2006).
